Results from patent US5686460A, “Carbocyclic diarylmethylene derivatives, processes for their preparation and their uses in therapeutics” (Laboratoires UPSA, priority 1996, dated 1997).
At least one structure is not confirmed: it was looked up by name or label, or the drawing left a doubt.

Tested on: COX-1
Experiment: Inhibition of the COX-1 enzymatic activity (PGE2 determined by EIA)
Type: biochemical, ram
Conditions: 10^-5 M; arachidonic acid 6 μM; mean±standard deviations of 4 determinations
Experimental: Inhibition of the COX-1 and COX-2 enzymatic activities The molecule studied is preincubated for 10 minutes at 25° C. with 2 U of COX-1 (purified enzyme from ram seminal vesicles) or 1 U of COX-2 (purified enzyme from ewe placenta). Arachidonic acid (6 μM for COX-1, 4 μM for COX-2) is added to the reaction medium and incubation is carried out for 5 minutes at 25° C. When incubation has ended, the enzymatic reaction is stopped by the addition of 1N HCl and the PGE2 produced is determined by EIA. The results are expressed as the percentage inhibition of the COX-1 and COX-2 enzymatic activities and correspond to mean±standard deviations of the average of 4 determinations.

CS(=O)(=O)c1ccc(C(=C2CCCC2)c2ccc(F)cc2)cc1 [Example 3, 4-[(Cyclopentylidene)(4-fluorophenyl)methyl]methylsulfonylbenzene]
% inhibition of the COX-1 activity: 0 ± 0%
